Measured values published in article doi:10.1101/2020.11.17.386672.
No constants are given. Whether binding was seen depends on the method and setting. In cells and extracts the contact can be indirect. Here binding means that the protein was enriched with, or labelled near, the bait; the list need not be complete.

By UniProt entry, the sequences of proteins in these tests, tags left out.
UniProt O22467: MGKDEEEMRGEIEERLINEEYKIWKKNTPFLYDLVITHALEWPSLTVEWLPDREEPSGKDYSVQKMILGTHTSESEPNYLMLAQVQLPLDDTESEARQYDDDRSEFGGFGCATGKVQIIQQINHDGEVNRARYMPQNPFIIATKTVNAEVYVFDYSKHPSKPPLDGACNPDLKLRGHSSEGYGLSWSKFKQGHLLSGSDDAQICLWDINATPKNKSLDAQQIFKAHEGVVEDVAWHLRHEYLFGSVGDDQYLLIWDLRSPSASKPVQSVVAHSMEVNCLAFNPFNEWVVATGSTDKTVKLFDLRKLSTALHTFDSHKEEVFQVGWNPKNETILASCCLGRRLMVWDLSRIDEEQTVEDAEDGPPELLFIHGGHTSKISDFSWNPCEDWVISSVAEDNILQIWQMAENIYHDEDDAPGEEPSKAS

Target: T1, HDA15 (endogenous) (Arabidopsis thaliana (endogenous in Col-0)) (UniProt Q8GXJ1)
T1 sequence: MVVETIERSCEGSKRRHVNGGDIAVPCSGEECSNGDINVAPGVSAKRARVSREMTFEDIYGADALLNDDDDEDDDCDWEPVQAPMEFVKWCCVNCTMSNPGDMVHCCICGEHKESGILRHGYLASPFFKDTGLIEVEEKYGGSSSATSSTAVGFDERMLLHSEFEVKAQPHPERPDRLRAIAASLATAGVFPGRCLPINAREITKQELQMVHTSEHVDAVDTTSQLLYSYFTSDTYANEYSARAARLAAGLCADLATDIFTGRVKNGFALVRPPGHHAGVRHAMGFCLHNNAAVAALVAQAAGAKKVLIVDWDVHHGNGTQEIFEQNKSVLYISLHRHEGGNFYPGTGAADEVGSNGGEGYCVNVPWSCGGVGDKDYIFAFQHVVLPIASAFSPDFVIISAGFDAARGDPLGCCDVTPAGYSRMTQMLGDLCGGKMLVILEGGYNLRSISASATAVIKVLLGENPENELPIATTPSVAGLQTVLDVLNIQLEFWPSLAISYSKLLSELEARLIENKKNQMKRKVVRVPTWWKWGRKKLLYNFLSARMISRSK
Assay: affinity purification with mass spectrometry

Substance	binding
MAC5A	binds
MULTICOPY SUPRESSOR OF IRA1 (MSI1) (from UniProt O22467 1-424)	binds
